Primary screen of a compound library

Mtb growth Cornell: 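Whole-cell assay for inhibitors of Mycobacterium tuberculosis growth, labelled Cornell in the record; the read-out is not stated. The concentration is filed as 10 mM, unlikely as a test dose, so the dose is not known. Higher means stronger inhibition (inferred from two other growth screens of the library). Size under these conditions: about 53,000 compounds, about 900 of them at 50% or above in at least one test.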
Mtb heat-shock: 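Assay on Mycobacterium tuberculosis, filed only as a heat shock assay from Cornell; the read-out is not stated. The concentration is filed as 10 mM, unlikely as a test dose, so the dose is not known. Direction is inferred from retests: higher values go with stronger inhibition. Of about 69,000 compounds tested this way, about 930 (1.4%) reached 50% or more in at least one test.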

Results are given as percent effect.
How 0% and 100% were set is not recorded. Most values in the screen are low, and negative values occur.
This is an unselected part of the compounds tested.
A dash means the value is not listed here; it may have been measured.

Compound,Mtb growth Cornell,Mtb heat-shock
[H][C@@]12CS(=O)(=O)C[C@]1([H])N(C(=O)c1snnc1C)CCN2C(C)=O,-9.053,7.008
COCC1CCN(S(=O)(=O)c2ccc(C(=O)NCC(F)F)cc2)C1 (centres undefined),-,-0.6687
Cl.O=C1N(Cc2cccc(Cl)c2)CCC12CCCNC2 (centres undefined),12.79,-6.247
CCNc1cc2c(nn1)CCN(C(=O)c1ccc3cc[nH]c3c1)C2,-,16.5
NC(=O)NC(CC(=O)NCCc1ccc(F)cc1)c1ccccc1 (centres undefined),-21.56,0.8492
CCOC(=O)NC1CCCN(Cc2ccc(-n3cncn3)c(C)c2)C1 (centres undefined),13.61,-7.994
O=C(NC(C(=O)Nc1cc[nH]n1)c1ccccc1)C1CCC1 (centres undefined),13.51,7.229
Cl.c1cc(CC2CCCNC2)nc(NCCc2cnccn2)c1 (centres undefined),23.21,-44.36
Cc1cccc(CN2C(=O)CCC23CCN(C(=O)c2ccco2)CC3)n1.O=C(O)C(F)(F)F,7.845,-22.73
Cn1cc(-c2cnc3n2CCC32CCN(S(C)(=O)=O)CC2)cn1,-14.67,-29.9
CN(C)c1ncc(NC(=O)c2cccc(Nc3cnn(C)c3)c2)cn1,-18.43,4.103
CCc1cc(NC2CCN(S(C)(=O)=O)CC2)n2nc(C)c(C)c2n1,7.068,105.8
O=C(O)C(F)(F)F.O=C1CC2(CCN(CCO)C2)CN1c1cccc(F)c1 (centres undefined),17.54,9.175
Cc1ccc(C(=O)N2CCN(CCCSCC#N)CC2)o1,13.4,9.809
O=C(Nc1ccccc1Cn1cccn1)N1CCCC(N2CCCC2)C1 (centres undefined),-0.182,-23.37
Cc1cccnc1N1CCN(C(=O)CCc2ccccn2)CC1,3.44,-12.42
C=C(C)COc1cccc(C(=O)N(CC)Cc2nc(COC)no2)c1,23.49,-23.63
CCc1nc2n(n1)CC(Nc1cc(C)nc3ncnn13)CC2 (centres undefined),-4.727,0.1666
Cc1cc(CN(C)C(=O)Nc2cnc3c(c2)c(C)nn3C)no1,-,-5.276
CCOC(=O)N1CC(=O)N(CCc2ccccc2)CC(O)C1 (centres undefined),1.456,15.03
O=C(O)C(F)(F)F.[H][C@@]12CCN(Cc3ccc(C)s3)C[C@]1(COC)CCO2,-31.22,-14.18
Cc1cc2n(n1)CC(CNCCNC(=O)c1ccc(F)cc1)CN2 (centres undefined),-8.355,46.23
COc1ccc(Oc2cc(CN)ccn2)cc1,2.333,-3.36
COc1ccc(F)cc1C[S+]([O-])CC(=O)NCc1ccccc1C (centres undefined),-75.27,-27.22
Cc1cnn(CCC(=O)Nc2ccc(F)cc2OCC2CC2)c1,19.3,-21.74
CN(C)C(C(=O)N1CCN(CCn2cccc2)CC1)c1ccc(F)cc1 (centres undefined),31.67,11.76
Cc1cc(NC(=O)CC2(Cn3cnnn3)CCCCC2)nn1C,26.64,-24.35
[H][C@@]12CN(C(=O)C3CCOC3)C[C@]1([H])C(=O)N(c1ccccc1)C2 (some centres undefined),8.707,6.523
O=C(CCc1nc(C2CC2)no1)c1ccc(F)c(F)c1,5.625,17.7
CC(c1nnc(-c2cccs2)o1)N1CCc2cncnc2C1 (centres undefined),27.1,3.081
CNC(=O)CSc1cnn(CC(=O)Nc2cccc(Cl)c2C)c(=O)c1Cl,-5.714,5.357
Cc1nc(Nc2nncs2)cc(C2CCCN2C)n1 (centres undefined),-51.01,-13.41
CCCn1ccnc1-c1nccn1CCN(C)C,12.47,5.486
COc1ccc(C2CCCN2C(=O)NCCNc2ccccn2)cc1 (centres undefined),24.1,-0.3134
c1cc(-c2cn[nH]c2)ccc1CN1CCCCC1,0.5337,-21.05
[H][C@]12CC[C@]([H])(CN(S(C)(=O)=O)C1)N(C(=O)c1csc(NC)n1)C2,-19.29,-33.79
Cc1nc(C)n(CC2CCCN(CCOc3ccccc3F)C2)n1 (centres undefined),-21.82,-24.38
COc1cccc(-c2noc(C3CCN(Cc4ccc(C)cc4)C3)n2)c1.Cl (centres undefined),5.809,-35.27
COCCn1nc(C(=O)N2CCOCC2C)ccc1=O (centres undefined),-26.19,-6.158
Cc1nc(NC(=O)c2c(-n3cnnn3)sc3c2CCCC3)sc1C,19.43,2.171
CCc1noc(C(C)N2CCN(Cc3noc(C)n3)CC2)n1 (centres undefined),-,-2.561
CN(C)C(=O)COCC1CN(Cc2ccsc2)Cc2nccn2C1 (centres undefined),-45.37,-20.6
COc1cc(CNCCNC(=O)c2ccc(O)cc2)ccc1SC,10.16,-19.86
O=C1CCCN1Cc1ncn2c1CN(C(=O)Cc1ccccc1)CCC2,-,-38.46
CC(C)Nc1cccc(C(=O)NCC(O)c2ccc(F)cc2F)c1 (centres undefined),-,-10.59
CN1CCN(S(=O)(=O)N2CCCCC2CCc2ccc(O)cc2)CC1 (centres undefined),-10.47,-25.02
Cc1cnn(CCNCCCOc2ccc3c(c2)OCO3)c1,45.7,7.972
Cl.O=C1CC2(CCCNC2)C(=O)N1Cc1ccccc1 (centres undefined),-1.148,-19.79
COCCn1/c(=N\C(=O)CN(C)S(C)(=O)=O)sc2cccc(F)c21,-10.11,-10.23
COCc1cc(O)nc(C2CCCN(Cc3cccc(OC)c3)C2)n1 (centres undefined),-,-18.07

Repeated from the top, 3 entries:

Compound,Mtb growth Cornell,Mtb heat-shock
[H][C@@]12CS(=O)(=O)C[C@]1([H])N(C(=O)c1snnc1C)CCN2C(C)=O,-9.053,7.008
COCC1CCN(S(=O)(=O)c2ccc(C(=O)NCC(F)F)cc2)C1 (centres undefined),-,-0.6687
Cl.O=C1N(Cc2cccc(Cl)c2)CCC12CCCNC2 (centres undefined),12.79,-6.247

From ChEMBL document CHEMBL3988442, “University of Dundee, Small-Polar-MMV Screening Library” (2021).